Experimental data: article PMC6515119
No constants are given. Whether binding was seen depends on the method and setting. In cells and extracts the contact can be indirect. Some results given as binding are weak or reduced against the parent protein; the word gives no strength. Sequences can lack the tags named with a protein.

Chains of the proteins cited; added tags and fusions are not shown.
UniProt P16371: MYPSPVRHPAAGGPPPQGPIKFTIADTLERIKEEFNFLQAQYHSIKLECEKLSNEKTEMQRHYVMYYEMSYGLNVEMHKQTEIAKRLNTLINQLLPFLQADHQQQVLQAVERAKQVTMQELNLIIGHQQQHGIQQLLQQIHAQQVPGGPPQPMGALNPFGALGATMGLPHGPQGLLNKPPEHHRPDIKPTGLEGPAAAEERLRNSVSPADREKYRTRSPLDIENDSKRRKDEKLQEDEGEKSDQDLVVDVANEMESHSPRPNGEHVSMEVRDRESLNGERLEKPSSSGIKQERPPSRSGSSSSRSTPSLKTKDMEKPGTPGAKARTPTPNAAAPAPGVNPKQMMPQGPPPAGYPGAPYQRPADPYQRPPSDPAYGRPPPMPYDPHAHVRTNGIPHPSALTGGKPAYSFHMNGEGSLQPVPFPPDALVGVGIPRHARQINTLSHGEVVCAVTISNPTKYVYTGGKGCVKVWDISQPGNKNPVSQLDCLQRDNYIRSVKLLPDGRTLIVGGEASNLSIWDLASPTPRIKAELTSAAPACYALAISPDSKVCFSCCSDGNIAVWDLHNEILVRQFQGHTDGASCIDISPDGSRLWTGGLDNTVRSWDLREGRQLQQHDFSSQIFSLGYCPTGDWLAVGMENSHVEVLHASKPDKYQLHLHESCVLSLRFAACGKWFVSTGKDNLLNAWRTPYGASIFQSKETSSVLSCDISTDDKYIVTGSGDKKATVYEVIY

Target: T1, Homeodomain-interacting protein kinase (Hipk) fused N-terminally to the N-terminal fragment of YFP (Drosophila) (UniProt Q9W0Q1)
T1 sequence: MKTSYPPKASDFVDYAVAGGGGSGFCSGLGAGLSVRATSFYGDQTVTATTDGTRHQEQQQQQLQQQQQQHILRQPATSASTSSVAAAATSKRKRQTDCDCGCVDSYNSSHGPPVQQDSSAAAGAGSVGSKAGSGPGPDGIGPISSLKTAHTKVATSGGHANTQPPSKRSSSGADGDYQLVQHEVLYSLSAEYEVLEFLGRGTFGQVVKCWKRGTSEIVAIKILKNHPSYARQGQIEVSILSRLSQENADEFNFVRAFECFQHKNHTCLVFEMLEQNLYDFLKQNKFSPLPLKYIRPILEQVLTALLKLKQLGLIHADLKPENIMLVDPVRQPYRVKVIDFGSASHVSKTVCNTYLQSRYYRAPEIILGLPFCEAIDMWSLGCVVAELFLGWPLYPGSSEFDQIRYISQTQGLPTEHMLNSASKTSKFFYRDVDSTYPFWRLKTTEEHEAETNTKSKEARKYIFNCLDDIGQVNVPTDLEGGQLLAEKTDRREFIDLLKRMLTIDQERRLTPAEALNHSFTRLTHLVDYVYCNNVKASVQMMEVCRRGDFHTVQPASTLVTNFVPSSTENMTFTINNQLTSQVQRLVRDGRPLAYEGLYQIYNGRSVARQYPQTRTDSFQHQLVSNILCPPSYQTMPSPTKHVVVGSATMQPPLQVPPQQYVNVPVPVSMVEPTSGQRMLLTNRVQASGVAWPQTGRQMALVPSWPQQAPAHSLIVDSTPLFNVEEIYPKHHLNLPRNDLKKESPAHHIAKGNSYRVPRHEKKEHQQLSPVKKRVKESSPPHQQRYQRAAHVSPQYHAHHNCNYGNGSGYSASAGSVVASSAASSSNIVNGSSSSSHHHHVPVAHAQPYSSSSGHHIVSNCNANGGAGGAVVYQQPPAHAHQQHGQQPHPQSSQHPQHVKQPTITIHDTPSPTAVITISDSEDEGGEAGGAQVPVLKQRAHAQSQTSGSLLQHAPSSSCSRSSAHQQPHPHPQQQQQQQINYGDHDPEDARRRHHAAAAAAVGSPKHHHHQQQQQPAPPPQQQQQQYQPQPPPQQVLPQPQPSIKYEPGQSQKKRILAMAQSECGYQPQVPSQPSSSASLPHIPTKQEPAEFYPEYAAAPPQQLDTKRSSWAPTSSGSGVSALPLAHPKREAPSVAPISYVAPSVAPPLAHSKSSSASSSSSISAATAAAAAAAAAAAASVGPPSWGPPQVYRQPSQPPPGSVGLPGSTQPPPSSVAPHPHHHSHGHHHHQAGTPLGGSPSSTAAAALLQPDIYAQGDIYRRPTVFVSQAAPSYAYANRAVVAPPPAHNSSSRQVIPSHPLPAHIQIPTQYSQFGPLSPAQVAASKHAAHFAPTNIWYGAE
Assay: split reporter; BiFC: NYFP and CYFP fusions coexpressed from UAS constructs with MS1096-Gal4 in third larval instar wing imaginal discs; crosses at 25 °C; anti-GFP immunostaining to enhance the YFP signal

binding: binds
Substance: Groucho (Gro) fused to the C-terminal fragment of YFP (from UniProt P16371 1-730)
